Several values for one entry are separate records, joined by “and”; a condition that tells them apart may be missing. Equal entries are not always repeated. At least one read-out could not be matched to a standard name with certainty.
Molecular target: T1, rat GPR14 (U-II receptor) (Rattus norvegicus, UniProt P49684)
T1 construct: expressed in transfected cells
T1 sequence (P49684 1-386): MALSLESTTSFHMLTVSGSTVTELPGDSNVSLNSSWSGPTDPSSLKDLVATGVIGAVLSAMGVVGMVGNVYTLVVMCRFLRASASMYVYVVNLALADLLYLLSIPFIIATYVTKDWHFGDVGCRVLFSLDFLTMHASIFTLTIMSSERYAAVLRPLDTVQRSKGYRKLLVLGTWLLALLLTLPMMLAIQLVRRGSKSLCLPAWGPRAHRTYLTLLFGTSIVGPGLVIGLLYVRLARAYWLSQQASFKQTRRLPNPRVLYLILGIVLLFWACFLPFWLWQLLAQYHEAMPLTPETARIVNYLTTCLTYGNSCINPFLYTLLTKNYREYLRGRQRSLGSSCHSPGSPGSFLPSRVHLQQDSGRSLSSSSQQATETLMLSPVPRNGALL
Test: Rat UII Calcium Mobilization FLIPR Assay
Format: cell-based
Details: 10 μM compound; agonist-induced Ca2+ mobilization (FLIPR), CHO cells with rat UII receptor
Text: To derive these cells, the complete coding sequence of rat U-II (Genbank Accession No. U32673) was amplified by nested PCR from rat heart marathon-Ready cDNA. […] The PCR products were cloned into pcDNA3 (Invitrogen) digested with EcoR I and Xba I. Clones containing rat U-II receptor were verified by complete sequencing of the U-II receptor insert to ensure a lack of PCR-introduced errors. The constructed vector was transfected into CHO cells by using lipofectamine (GIBCO BRL). CHO cells with high expression of rat U-II receptor were selected and established as stable cell lines by using G418. CHO cells were seeded at 25,000 cells per well into 96-well, black-wall, clear-bottom microtiter plates 24 h before assay. Cells in culture media (DMEM/F12 containing 15 mM HEPES, L-glutamine, pyridoxine hydrochloride; 10% fetal bovine serum; 1 mg/mL G418 sulfate; antibiotic-antimycotic; pH 7.4) were loaded with proprietary dye, from the FLIPR Calcium Assay Kit (Molecular Devices), prepared in assay buffer (Hanks Balanced Salts Solution, 20 mM HEPES, 0.1% BSA, 2.5 mM probenecid, pH 7.4), and incubated for 1 h at 37° C. Calcium mobilization determinations were performed at room temperature (23° C.).

Structure (SMILES)	% I @ 10 (μM)
COc1ccc(CN2C(=O)c3cccc(N4CCN(Cc5ccc(F)cc5)CC4)c3C2=O)cc1OC [Cpd 12, 2-(3,4-dimethoxy-benzyl)-4-[4-(4-fluoro-benzyl)-piperazin-1-yl]-isoindole-1,3-dione]	77% and 101%
COc1ccc(CN2C(=O)c3cccc(N4CC5CCC(C4)N5Cc4ccccc4)c3C2=O)cc1OC [Cpd 7, 4-(8-benzyl-3,8-diaza-bicyclo[3.2.1]oct-3-yl)-2-(3,4-dimethoxy-benzyl)-isoindole-1,3-dione]	74%

From patent US8193191B2, “Urotensin II receptor antagonists” (Janssen Pharmaceutica N.V., priority 2006, dated 2012)
